Publication PMC9044668
These are yes or no findings as the source states them, for the method shown. In cells and extracts the contact can be indirect. Some entries that bind do so weakly or less than the wild type.

Protein sequences, listed by entry. Tags and fused reporters are not part of them. Residues count along the entry.
UniProt P27540: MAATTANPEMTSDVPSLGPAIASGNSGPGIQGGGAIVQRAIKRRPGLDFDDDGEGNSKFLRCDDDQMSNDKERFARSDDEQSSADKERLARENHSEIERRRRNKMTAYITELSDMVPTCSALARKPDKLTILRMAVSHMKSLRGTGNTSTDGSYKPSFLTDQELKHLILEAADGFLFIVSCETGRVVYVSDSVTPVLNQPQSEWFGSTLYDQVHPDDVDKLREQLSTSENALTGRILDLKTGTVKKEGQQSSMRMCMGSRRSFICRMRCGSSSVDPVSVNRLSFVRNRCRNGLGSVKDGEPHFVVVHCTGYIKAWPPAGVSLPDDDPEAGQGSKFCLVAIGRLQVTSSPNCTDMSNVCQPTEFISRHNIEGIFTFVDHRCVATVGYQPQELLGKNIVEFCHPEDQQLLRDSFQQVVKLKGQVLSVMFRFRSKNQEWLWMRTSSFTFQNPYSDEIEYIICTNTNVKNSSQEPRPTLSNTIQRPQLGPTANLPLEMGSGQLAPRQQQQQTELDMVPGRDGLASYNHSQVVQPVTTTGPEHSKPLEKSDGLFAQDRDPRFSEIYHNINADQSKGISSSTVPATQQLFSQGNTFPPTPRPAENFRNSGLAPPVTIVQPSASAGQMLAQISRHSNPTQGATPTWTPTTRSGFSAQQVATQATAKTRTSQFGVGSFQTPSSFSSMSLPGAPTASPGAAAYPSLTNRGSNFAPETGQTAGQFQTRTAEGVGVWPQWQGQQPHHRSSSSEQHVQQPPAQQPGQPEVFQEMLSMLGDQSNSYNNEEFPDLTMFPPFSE
UniProt P35869, residues 11-848: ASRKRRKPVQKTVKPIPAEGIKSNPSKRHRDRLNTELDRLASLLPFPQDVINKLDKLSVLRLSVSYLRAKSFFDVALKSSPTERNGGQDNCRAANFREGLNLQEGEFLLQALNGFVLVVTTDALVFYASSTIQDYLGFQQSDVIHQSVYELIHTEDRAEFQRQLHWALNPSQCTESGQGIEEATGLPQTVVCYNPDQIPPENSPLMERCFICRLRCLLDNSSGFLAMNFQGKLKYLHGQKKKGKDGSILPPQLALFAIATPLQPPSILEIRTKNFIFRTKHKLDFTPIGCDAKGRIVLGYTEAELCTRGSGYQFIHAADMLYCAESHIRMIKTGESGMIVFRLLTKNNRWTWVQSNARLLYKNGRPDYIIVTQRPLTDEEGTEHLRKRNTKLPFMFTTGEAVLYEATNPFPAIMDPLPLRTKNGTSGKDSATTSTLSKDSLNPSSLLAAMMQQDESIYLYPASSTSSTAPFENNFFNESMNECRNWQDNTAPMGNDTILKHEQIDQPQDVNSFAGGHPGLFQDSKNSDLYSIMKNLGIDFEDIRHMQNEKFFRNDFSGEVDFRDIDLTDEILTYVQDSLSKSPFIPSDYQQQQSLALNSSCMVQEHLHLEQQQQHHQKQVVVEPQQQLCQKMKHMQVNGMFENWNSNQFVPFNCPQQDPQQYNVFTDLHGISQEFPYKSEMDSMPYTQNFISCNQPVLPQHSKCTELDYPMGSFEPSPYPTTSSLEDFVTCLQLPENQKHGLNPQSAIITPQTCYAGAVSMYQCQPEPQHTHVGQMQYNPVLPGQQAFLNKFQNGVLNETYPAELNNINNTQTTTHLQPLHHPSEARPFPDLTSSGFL

Target: ARNT fused to DsRed-Monomer (plasmid pDsRed-Monomer-ARNT) (human) (UniProt P27540)
Experiment: FRET or BRET; A549 cells co-transfected with pAcGFP1-AhR (donor) and pDsRed-Monomer-ARNT (acceptor); 24 h later treated with 0, 2, 4, 8 μM BaP for 24 h, or with 8 μM BaP with or without 300 μM CoCl2; high-content fluorescence imaging

For “AhR fused to AcGFP1 (plasmid pAcGFP1-AhR) (from UniProt P35869 11-848) (receptor)”, which binding is on record?
The binding was “binds”.
